Data from PubChem BioAssay AID493014 (National Center for Advancing Translational Sciences (NCATS), 2011).
Hit rate of the full screen: of about 340,000 compounds, about 170 (0.05%) were called active. Inconclusive means that the source gave no clear call. Such entries were picked first, then a sample of the others. Calls follow the shape of the dose curve; as a rule, active = well fitted inhibition curve with a large enough effect in the signal ratio, with a control signal flat (not every such curve was filed as active); inconclusive = small, poorly fitted or top-dose-only effect, or effect the other way, or a change in a side signal; inactive = flat fitted curve, though single readings scatter; the % refers to the signal ratio. Potencies of inconclusive entries are doubtful fits and often do not repeat.
Potency is read from the fitted curve at half-maximal effect.

Assay: qHTS Assay to Find Inhibitors of Chronic Active B-Cell Receptor Signaling;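 as to activity change, negative = inhibition: plate controls were basal doxycycline-induced cells for no effect and cells given 10 µM MG132 for full effect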
Details: ABC-DLBCL IkBa-CBG/CBR reporter, luminescence ratio (green luciferase fused to IkBa over red control in TMD8 lymphoma cells), 4 h; activity change, negative = inhibition: at 46.1 µM (top of the series) unless noted
How it was run: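 Compounds up to 46 uM were incubated four hours with TMD8 cells whose green CBG68 luciferase is fused to IkappaBalpha; red CBR luminescence normalised the signal, and concentration-effect curves were fitted to fusion, red and ratio data.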
With O=C(CSc1nnc2ccccn12)c1ccc(Cl)cc1 the Potency was inconclusive: 35.5 µM [falling, single point].
In the case of Cc1occc1-c1nnc(SCC(=O)Nc2nc3ccccc3s2)o1, the activity change, negative = inhibition was inconclusive: -9.54%.
With c1ccc(Cc2c[nH]c3ccccc23)cc1 the “activity change, negative = inhibition” value was inactive: 4.15%.
With Cc1oc(-c2cccc(Cl)c2)nc1CN1CCC(C(=O)NCC2CCCO2)CC1 (stereo not drawn) the “activity change, negative = inhibition” value was inactive: 0.728%.
For Cc1cc(NC(=O)c2ccc(F)cc2)n(-c2ccccn2)n1, the activity change, negative = inhibition was inconclusive: 14.3%.
In the case of Cc1cccc(NC(=O)CN2C(=O)S/C(=C\c3ccc(O)c([N+](=O)[O-])c3)C2=O)c1, the Potency was inconclusive: 25.1 µM [falling, single point].
In the case of COc1ccc(Nc2nc(=O)c3cc([N+](=O)[O-])ccc3s2)cc1, the Potency was inconclusive: 35.5 µM [falling, partial curve, poor fit].
With Cc1ccc(C(=O)NC(=S)NNC(=O)COc2ccccc2C)cc1 the activity change, negative = inhibition was inconclusive: 4.34%.
For Cc1cccc(NC2=C(NCCO)C(=O)c3ccccc3C2=O)c1, the activity change, negative = inhibition was inconclusive: -4.81%.
For CCOC(=O)C1C(C(=O)OC)=C(c2ccc(OC)cc2)c2ccccc2N1S(=O)(=O)C(F)(F)F (stereo not drawn), the activity change, negative = inhibition was inconclusive: -1.75%.
In the case of CC12CN3CCN(CC(C3)/C1=N\NC(=O)c1ccccc1N)C2, the Potency was inconclusive: 11.2 µM [falling, partial curve].
With O=C(/C=C/c1ccc(O)c(O)c1)NC(=O)c1ccccc1O the Potency was inconclusive: 5.62 µM [rising, single point].
For CCNc1nc(N)nc(Oc2ccc(OCCOc3ccc(Cl)cc3Cl)nn2)n1, the activity change, negative = inhibition was inconclusive: -22.6%.
For O=C(CSc1nnc(-c2ccncc2)n1Cc1ccccc1)Nc1nccs1, the activity change, negative = inhibition was inconclusive: -3.18%.
With CC(C)(C)OC(=O)NCCCCCNC(=O)c1nc[nH]c1C(=O)NCC(=O)OCc1ccccc1 the Potency was inconclusive: 20.6 µM [falling, single point].
In the case of C#CCOCCOCCOCCNc1nc(N2CCN(C(=O)CCCCCCCCCCNC(=O)[C@H]([C@@H](C)CC)n3cc(CCCCN=C(N)N)nn3)CC2)nc(N2CCN(C(=O)CCCCCCCCCCNC(=O)[C@H]([C@@H](C)CC)n3cc(CCCCN=C(N)N)nn3)CC2)n1, the activity change, negative = inhibition was inconclusive: -3.42%.
With CC(=O)N1CCN(c2nc(CC(C)C)c3c(c2C#N)CCC3)CC1 the “activity change, negative = inhibition” value was inactive: -0.287%.
For C/C(=N\NC(=O)CN1CCN(S(=O)(=O)c2ccc(C)cc2)CC1)c1ccncc1, the “activity change, negative = inhibition” value was inactive: 5%.
For COc1cc(/C=C/C(=O)O)ccc1OS(=O)(=O)c1c(C)c(C)cc(C)c1C, the activity change, negative = inhibition was inconclusive: 3.52%.
In the case of O=C(NCc1ccc(Cl)cc1)c1cc([N+](=O)[O-])ccc1Cl, the activity change, negative = inhibition was inconclusive: 2.88%.
In the case of O=C(CSC1=Nc2ccccc2C2=NC(CC(=O)NCc3ccco3)C(=O)N12)NCC1CCCO1 (stereo not drawn), the Potency was inconclusive: 12.6 µM [rising, partial curve, poor fit].
For O=C(COc1cccnc1[N+](=O)[O-])Nc1ccc(F)cc1, the Potency was inconclusive: 20.6 µM [falling, partial curve, poor fit].
In the case of COCc1nc2ccccc2n1Cc1c(F)cccc1Cl, the activity change, negative = inhibition was inconclusive: 8.61%.
With CCN(CC)c1ccc(N=Cc2ccccc2[N+](=O)[O-])cc1 the “activity change, negative = inhibition” value was inactive: -7.07%.
For Cc1ccc(S(=O)(=O)NCCCNS(=O)(=O)c2ccc(C)cc2)cc1, the activity change, negative = inhibition was inconclusive: 2.32%.
For O=C(O)CCN1C(=O)C(=C2CCCCCC2)SC1=S, the Potency was inconclusive: 12.6 µM [falling, partial curve, poor fit].
In the case of COC(=O)[C@H](CCSC)NC(=O)Cn1ccc(NC(=O)OCc2ccccc2)nc1=O, the activity change, negative = inhibition was inconclusive: 6.37%.
In the case of O=C1OC[C@H]2CCCN2C(=O)[C@@H](CC(=O)N(CCO)Cc2ccccc2)C/C=C\C[C@@H]1Cc1ccc(F)cc1, the activity change, negative = inhibition was inconclusive: 1.78%.
In the case of Cc1coc2cc3oc(=O)c(CCC(=O)O)c(C)c3cc12, the activity change, negative = inhibition was inconclusive: -1.29%.
In the case of O=[N+]([O-])c1cccc(-n2nnnc2CNCc2ccccc2)c1, the activity change, negative = inhibition was inconclusive: -2.05%.
For O=C1CNC(=S)N1Cc1ccccc1Cl, the “activity change, negative = inhibition” value was inactive: 1.3%.
In the case of Cc1cc(=O)[nH]c(SCCc2ccccc2)n1, the Potency was inconclusive: 15.8 µM [falling, single point].
For N#Cc1ccc(COC(=O)c2cnc(Cl)c(Cl)c2)cc1, the activity change, negative = inhibition was inconclusive: 0.747%.
In the case of COc1ccccc1N(CC(=O)NC(C)(C)C)C(=O)Cn1nnc(-c2ccc(C)o2)n1, the activity change, negative = inhibition was inconclusive: -6.36%.
In the case of COC(=O)C1=C(C)N(Cc2ccccc2)C(=NCc2cc(OC)c(OC)c(OC)c2)N[C@H]1CCc1ccccc1, the Potency was inconclusive: 12.6 µM [falling, partial curve, poor fit] and the activity change, negative = inhibition was inconclusive: -5.52%.
In the case of COc1cc(NC(=O)CN2C(=O)C(c3ccccc3)=NC2(C)C)cc(OC)c1, the “activity change, negative = inhibition” value was inactive: -15.5%.
With CC(OC(=O)CNC(=O)C12CC3CC(CC(C3)C1)C2)C(=O)Nc1ncc(Cl)cc1Cl (stereo not drawn) the Potency was inconclusive: 2.31 µM [rising, partial curve, poor fit].
For CCC(=O)n1nc(-c2ccccc2)nc1NCc1ccccc1, the Potency was inconclusive: 18.4 µM [falling, single point].
With Cc1ccc(C(=O)O/N=C(\N)c2ccc(C(F)(F)F)cn2)cc1 the activity change, negative = inhibition was inconclusive: 14.2%.
In the case of Cc1cccc(C(=O)NC(=S)Nc2cccc3nc(C)ccc23)c1, the Potency was inconclusive: 11.2 µM [falling, partial curve, poor fit].
For O=C(CN(CC1CCCO1)C(=O)c1nsc(Cl)c1Cl)NC1CCCC1 (stereo not drawn), the activity change, negative = inhibition was inconclusive: -3.74%.
In the case of COc1ccc(C(=O)NC(=S)Nc2ccccc2N2CCCCC2)cc1[N+](=O)[O-], the activity change, negative = inhibition was inconclusive: 6.02%.
With COc1cc(Cn2c(-c3nonc3N)nc3ccccc32)ccc1C the activity change, negative = inhibition was inconclusive: -7.68%.
In the case of CCOC(=O)c1ccc(COC(=O)c2ccc3c(c2)-c2ccccc2C3=O)cc1, the Potency was inconclusive: 11.2 µM [falling, partial curve].
With O=C(CNc1ccccc1)N/N=C/c1ccc([N+](=O)[O-])cc1 the activity change, negative = inhibition was inconclusive: 4.85%.
For Cc1cc(C)cc(NC(=O)CSc2nnc(CNC(=O)c3ccco3)n2C)c1, the “activity change, negative = inhibition” value was inactive: -0.59%.
For O=C(COC(=O)c1c(Cl)cccc1Cl)Nc1ccccc1Br, the Potency was inconclusive: 29.1 µM [falling, single point].
In the case of COc1ccc(-c2cc3ncccc3cn2)cc1, the Potency was inconclusive: 29.1 µM [falling, single point].
In the case of CC(C)(C)n1nc(C2CC2)cc1NC(=O)Nc1ccc(Cl)cc1, the activity change, negative = inhibition was inconclusive: 14.2%.
For Nc1ccccc1SCC(=O)Nc1nccs1, the activity change, negative = inhibition was inconclusive: -5.92%.
For Cc1ccc(NC(=O)C2CCCO2)cc1[N+](=O)[O-] (stereo not drawn), the Potency was inconclusive: 23.1 µM [falling, partial curve, poor fit].
For c1ccc2c(c1)[nH]c1c(N3CCN(C4CCCCC4)CC3)ncnc12, the “activity change, negative = inhibition” value was inactive: 0.491%.
For Cc1ccccc1C(=O)NC(=S)NCC(=O)c1ccccc1, the Potency was inconclusive: 4.47 µM [falling, full curve, poor fit].
For Cc1nc(NC(C)c2ccccc2)c2oc3ccccc3c2n1 (stereo not drawn), the activity change, negative = inhibition was inconclusive: 5.53%.
With Cn1nnnc1SCc1cccc(CSc2nnnn2C)n1 the “activity change, negative = inhibition” value was inactive: -1.22%.
For Cc1cccc(C(=O)N[C@H](C(=O)Nc2ccc3c(c2)OCO3)C(C)C)c1, the activity change, negative = inhibition was inconclusive: -3.25%.
In the case of CCN(C(=O)COn1nnc2ccc(S(=O)(=O)N(C)C)cc21)C1CCS(=O)(=O)C1 (stereo not drawn), the activity change, negative = inhibition was inconclusive: 1.38%.
In the case of Cc1ccc(S(=O)(=O)/N=C2/NC(=O)/C(=C/c3ccccc3)S2)cc1, the activity change, negative = inhibition was inconclusive: -0.582%.
For N#C/C(=C(/O)CSc1nnc(Cc2cccs2)n1C1CCCCC1)c1nc2ccccc2[nH]1, the activity change, negative = inhibition was inconclusive: -1.74%.
For NC(=O)C1CCN(c2oc(-c3cccs3)nc2S(=O)(=O)c2ccc(Br)cc2)CC1, the “activity change, negative = inhibition” value was inactive: 0.9%.
In the case of CCOC(=O)C1=CN(Cc2cccc(F)c2)S(=O)(=O)N(C)C1c1ccc2ccccc2c1 (stereo not drawn), the activity change, negative = inhibition was inconclusive: -3.52%.
For CCn1c(SCC(O)c2ccccc2)nnc1-c1ccccc1 (stereo not drawn), the activity change, negative = inhibition was inconclusive: -13.2%.
For CCNc1nc(SCC(=O)Nc2ccc(Cl)c(Cl)c2)nc(N2CCOCC2)n1, the activity change, negative = inhibition was inconclusive: 5.97%.
In the case of COC(=O)Nc1nc2ccc(Br)cc2s1, the activity change, negative = inhibition was inconclusive: 0.273%.
With Cc1nc2ccc(NC(=O)Cc3ccc(Br)cc3)cc2s1 the activity change, negative = inhibition was inconclusive: 8.09%.
With Cc1c(Cl)cccc1NC(=O)CCN1CCCCCC1 the activity change, negative = inhibition was inconclusive: -0.728%.
For Cc1cnc(NC(=O)CSC(=S)N2CCOCC2)s1, the activity change, negative = inhibition was inconclusive: 14.2%.
In the case of COc1ccc(C(=O)Cc2cc(OC)c(OC)cc2[N+](=O)[O-])cc1, the activity change, negative = inhibition was inconclusive: -8.78%.
For COc1ccc(C(=O)CC(SCC(NC(C)=O)C(=O)O)c2ccc(Cl)cc2)cc1OC (stereo not drawn), the activity change, negative = inhibition was inconclusive: -10.8%.
In the case of COc1ccc(CNc2ncnc3c2[nH]c2cc(OC)c(OC)cc23)cc1, the “activity change, negative = inhibition” value was inactive: -3.01%.
With N#Cc1c(-c2ccco2)cc(-c2ccccc2)[nH]c1=O the Potency was inconclusive: 15.8 µM [rising, partial curve, poor fit].
With CCCC(=O)Nc1cccc(C(=O)Nc2nccs2)c1 the activity change, negative = inhibition was inconclusive: -1.85%.
For Cc1cccnc1NC(=S)NC(=O)/C=C/c1ccccc1, the Potency was inconclusive: 28.2 µM [falling, single point].
With C/C(=N/NC(=O)c1ccncc1)c1cc2ccc(O)cc2oc1=O the “activity change, negative = inhibition” value was inactive: -6.98%.
With Cc1cc(-c2n[nH]c(=S)n2CC(C)C)cs1 the “activity change, negative = inhibition” value was inactive: 3.32%.
In the case of C/C(=N\Nc1nc2ccccc2s1)c1cccs1, the Potency was inconclusive: 18.4 µM [falling, single point].
For Cc1cc([N+](=O)[O-])cc2ncccc12, the Potency was inconclusive: 29.1 µM [falling, single point].
